Assay results from patent US20130272958A1 (NATIONAL RESEARCH COUNCIL OF CANADA, published 2013).
No constants are given. Whether binding was seen depends on the method and setting. Some results given as binding are weak or reduced against the parent protein; the word gives no strength. Tags and fused reporters may be left off the sequences shown.

The chains behind the UniProt entries cited, without tags or fusion partners. Where a name states a change or a piece, a line headed by the entry shows the natural chain unless it says otherwise.
UniProt P40199: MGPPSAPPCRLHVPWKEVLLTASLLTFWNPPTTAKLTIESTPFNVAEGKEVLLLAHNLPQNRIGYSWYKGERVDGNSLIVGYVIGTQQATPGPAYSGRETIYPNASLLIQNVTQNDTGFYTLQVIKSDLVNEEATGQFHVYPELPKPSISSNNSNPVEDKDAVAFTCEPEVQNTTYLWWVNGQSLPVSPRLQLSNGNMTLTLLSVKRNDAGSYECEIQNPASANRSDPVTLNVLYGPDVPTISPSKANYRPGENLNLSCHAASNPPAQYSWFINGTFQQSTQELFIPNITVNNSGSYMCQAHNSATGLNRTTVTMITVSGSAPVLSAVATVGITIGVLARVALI

Tests used:
[1] = target: recombinant CEACAM6 N-terminal domain (expressed in E. coli) (Homo sapiens (Human)) (UniProt P40199); experiment: SPR (Biacore 3000), CEACAM6 immobilised on CM5, ovalbumin reference
[2] = target: recombinant CEACAM6 N-terminal domain (expressed in E. coli) (Homo sapiens (Human)) (UniProt P40199); experiment: ELISA on coated CEACAM6 N-domain after 24 hr in mouse serum at 37° C.
[3] = target: recombinant CEACAM6 N-terminal domain (expressed in E. coli) (Homo sapiens (Human)) (UniProt P40199); experiment: phage ELISA, phage-displayed 2A3 on coated CEACAM6
[4] = target: mammalian cell expressed recombinant CEACAM6 (Homo sapiens (Human)) (UniProt P40199); experiment: Western blot on mammalian-expressed recombinant CEACAM6

Measured: binding

B1: sdAb 2A3 (engineered, with c-myc and His tags) (VHH)
VHH: QVKLEESGGGLVQAGGSLRLSCRTSGRTNSVYTMGWFRQAPGKEREFVAQIMWGAGTNTHYADSVKGRFTISRDSAESTVYLQMNSLKPEDTAVYYCAANRGIPIAGRQYDYWGQGTQVTVSS
modifications: FITC-labelled in the staining and flow cytometry assays
notes: Llama VHH expressed in the E. coli periplasm and purified by IMAC; monomer by size exclusion; also called 2A3 sdAb; FITC-2A3
binds: [1] | [2] | [3] | [4]
